Source: the supplement of paper PMC10663445
Structures can show the parent of a compound that is named as a salt. This is one part of the list. Repeats are few or missing, and single values can be far off.

system: hsa-miR-132-3p; assay: miR-132-3p level in NGN2-iNs after compound treatment (TMM-normalised, ComBat batch-corrected) (batch-corrected normalised expression (arbitrary units)); higher = higher miR-132-3p expression; details: 10 µM; 24 h; human iPSC-derived NGN2 neurons (BR43)

Row | Structure (SMILES) | miR-132-3p level in NGN2-iNs
1 | COc1c(O)cc2c(c1O)[C@@H]1O[C@H](CO)[C@@H](O)[C@H](O)[C@H]1OC2=O [Bergenin] | -0.425
2 | CC(C)[C@H]1CC[C@H](C(=O)N[C@H](Cc2ccccc2)C(=O)O)CC1 [Nateglinide] | -0.266
3 | Nc1cccc(-c2cc3c(Oc4cccc(O)c4)ncnc3[nH]2)c1 | 0.863
4 | COc1ccc(-n2nc(C(N)=O)c3c2C(=O)N(c2ccc(N4CCCCC4=O)cc2)CC3)cc1 [Apixaban] | 2.78
5 | COc1ccc(C(C)=O)c(O)c1 [Paeonol] | 0.966
6 | C[C@@H](O)[C@H]1C(=O)N2C(C(=O)OCOC(=O)C(C)(C)C)=C(SC3CN(C4=NCCS4)C3)[C@H](C)[C@H]12 [Tebipenem Pivoxil] | 0.85
7 | CCCCOc1ccc(OCCCN2CCOCC2)cc1 [Pramoxine HCl] | -0.136
8 | CC1CCc2cc(F)cc3c(=O)c(C(=O)O)cn1c23 (stereo unspecified) [Flumequine] | 0.558
9 | CC(C)C[C@H](NC(=O)CNC(=O)c1cc(Cl)ccc1Cl)B1OC(=O)CC(CC(=O)O)(C(=O)O)O1 (stereo partly specified) [Ixazomib Citrate (MLN9708)] | 2
10 | CCOC(=O)C1=C(C)NC(C)=C(C(=O)OC)C1c1cccc([N+](=O)[O-])c1 (stereo unspecified) [Nitrendipine] | -0.446
11 | O=C1c2ccccc2-c2n[nH]c3cccc1c23 | 0.378
12 | CNC(=O)c1ccc(N2C(=S)N(c3cnc(C#N)c(C(F)(F)F)c3)C(=O)C23CCC3)cc1F | -0.937
13 | CC(CN1c2ccccc2Sc2ccccc21)N(C)C (stereo unspecified) [Promethazine HCl] | -0.155
14 | CNC(=O)c1ccccc1Sc1ccc2c(/C=C/c3ccccn3)n[nH]c2c1 [Axitinib] | -2.85
15 | CCOc1cc(N2CCC(O)CC2)ccc1Nc1ncc2c(n1)N(C)c1ccccc1C(=O)N2C | 0.128
16 | S=C=Nc1cccc(NC(=S)NCCCCNC(=S)Nc2cccc(N=C=S)c2)c1 | -0.551
17 | CC[C@H](Nc1ncnc2[nH]cnc12)c1nc2cccc(F)c2c(=O)n1-c1ccccc1 [Idelalisib (CAL-101, GS-1101)] | 0.184
18 | O=C(NC1CCNCC1)c1n[nH]cc1NC(=O)c1c(Cl)cccc1Cl | 0.269
19 | CC(C)c1noc(N2CCC(COc3ccc(-c4ccc(S(C)(=O)=O)cc4)nc3)CC2)n1 | -1.35
20 | CCCC(CCC)C(=O)O [Divalproex Sodium] | -0.38
21 | CCCC(CCC)C(=O)O [Valproic acid sodium salt (Sodium valproate)] | -0.0281
22 | COc1ccccc1N1CCN(CCN2C(=O)CC3(CCCC3)CC2=O)CC1 [BMY 7378 Dihydrochloride] | 1.24
23 | OCC(O)CN1CCN(c2ccccc2)CC1 (stereo unspecified) [Dropropizine] | -0.495
24 | O[C@@H](COc1cccc2ncccc12)CN1CCN(C2c3ccccc3[C@@H]3[C@H](c4ccccc42)C3(F)F)CC1 (stereo partly specified) | 0.152
25 | COC1=CC(=O)C[C@@H](C)[C@]12Oc1c(Cl)c(OC)cc(OC)c1C2=O [Griseofulvin] | -0.987
26 | Cc1ccc(-n2[nH]c(C)c(N=Nc3cccc(-c4cccc(C(=O)O)c4)c3O)c2=O)cc1C [Eltrombopag Olamine] | -0.0463

Quoted from the listing.
Entry of COc1ccc(-n2nc(C(N)=O)c3c2C(=O)N(c2ccc(N4CCCCC4=O)cc2)CC3)cc1 [Apixaban] under miR-132-3p level in NGN2-iNs: 2.78
Entry of CCCCOc1ccc(OCCCN2CCOCC2)cc1 [Pramoxine HCl] under miR-132-3p level in NGN2-iNs: -0.136
Entry of Nc1cccc(-c2cc3c(Oc4cccc(O)c4)ncnc3[nH]2)c1 under miR-132-3p level in NGN2-iNs: 0.863
Entry of CC(C)c1noc(N2CCC(COc3ccc(-c4ccc(S(C)(=O)=O)cc4)nc3)CC2)n1 under miR-132-3p level in NGN2-iNs: -1.35
Entry of O=C1c2ccccc2-c2n[nH]c3cccc1c23 under miR-132-3p level in NGN2-iNs: 0.378
Entry of CCCC(CCC)C(=O)O [Divalproex Sodium] under miR-132-3p level in NGN2-iNs: -0.38
Entry of CC(C)C[C@H](NC(=O)CNC(=O)c1cc(Cl)ccc1Cl)B1OC(=O)CC(CC(=O)O)(C(=O)O)O1 (stereo partly specified) [Ixazomib Citrate (MLN9708)] under miR-132-3p level in NGN2-iNs: 2

(cont.)

Row | Structure (SMILES) | miR-132-3p level in NGN2-iNs
27 | NC1=N[C@@]2(c3cc(NC(=O)c4ccc(F)cn4)ccc3F)COC[C@H]2CS1 | -0.94
28 | COc1ccc(COc2cc3oc(=O)c4cc(C(C)O)ccc4c3cc2OC)cc1 (stereo unspecified) [Palomid 529 (P529)] | -0.297
29 | COc1ccc2cc1Oc1ccc(cc1)C[C@H]1c3c(cc4c(c3Oc3cc5c(cc3OC)CCN(C)[C@@H]5C2)OCO4)CCN1C [Cepharanthine] | -0.691
30 | CO[C@H]1C[C@@H]2CC[C@@H](C)[C@@](O)(O2)C(=O)C(=O)N2CCCC[C@H]2C(=O)O[C@H]([C@H](C)C[C@@H]2CC[C@@H](OP(C)(C)=O)[C@H](OC)C2)CC(=O)[C@H](C)/C=C(\C)[C@@H](O)[C@@H](OC)C(=O)[C@H](C)C[C@H](C)/C=C/C=C/C=C/1C [Ridaforolimus (Deforolimus, MK-8669)] | 0.258
31 | CC[C@@H]1C(=O)N(C)c2cnc(Nc3ccc(C(=O)NC4CCN(C)CC4)cc3OC)nc2N1C1CCCC1 | 0.0111
32 | Cc1c(OCC(F)(F)F)ccnc1C[S+]([O-])c1nc2ccccc2[nH]1 (stereo unspecified) [Lansoprazole] | -0.35
33 | Brc1c(NC2=NCCN2)ccc2nccnc12 [Brimonidine Tartrate] | -0.666
34 | N=C(N)N/N=C/c1c(Cl)cccc1Cl [Guanabenz Acetate] | -0.349
35 | CN(CCOc1ccc(CC2SC(=O)NC2=O)cc1)c1ccccn1 (stereo unspecified) [Rosiglitazone] | -1.71
36 | CC(N)C12CC3CC(CC(C3)C1)C2 (stereo unspecified) [Rimantadine] | -1.4
37 | COc1ccc(C[C@@H]2c3cc(OC)c(OC)cc3CC[N@+]2(C)CCC(=O)OCCCCCOC(=O)CC[N@@+]2(C)CCc3cc(OC)c(OC)cc3[C@H]2Cc2ccc(OC)c(OC)c2)cc1OC [Cisatracurium Besylate] | 0.502
38 | CCOC(=O)c1c(C)n(C)c2ccc(O)cc12 [Mecarbinate] | -1.11
39 | O=C(O)CC1CC(c2ccccc2)=NO1 (stereo unspecified) | -0.76
40 | Cn1c([N+](=O)[O-])cnc1COC(N)=O [Ronidazole] | 0.493
41 | O=C1C(Cc2ccc(O)cc2)N2C(=O)CCN(C(=O)NCc3ccccc3)C2CN1Cc1cccc2ccccc12 (stereo unspecified) [Foscenvivint (ICG-001)] | 0.347
42 | CCN(c1cc(-c2ccc(CN3CCOCC3)cc2)cc(C(=O)NCc2c(C)cc(C)[nH]c2=O)c1C)C1CCOCC1 [Tazemetostat (EPZ-6438)] | -0.847
43 | Cc1cc(Nc2nc(N[C@@H](C)c3ncc(F)cn3)ncc2Cl)[nH]n1 | -0.37
44 | COC[C@H](NC(=O)c1cnc(C)s1)C(=O)N[C@@H](COC)C(=O)N[C@@H](Cc1ccccc1)C(=O)[C@@]1(C)CO1 [Oprozomib (ONX 0912)] | 0.115
45 | CNC(=O)[C@H](Cc1ccccc1)NC(=O)[C@H](CC(C)C)[C@H](CSc1cccs1)C(=O)NO [Batimastat (BB-94)] | 0.838
46 | CCOC(=O)[C@H](CCc1ccccc1)N[C@@H](C)C(=O)N1CCC[C@H]1C(=O)O [Enalapril Maleate] | 0.985
47 | C=CC(=O)Nc1ccc2ncnc(Nc3ccc(OCc4cccc(F)c4)c(Cl)c3)c2c1 [Allitinib tosylate] | -0.548
48 | CC1=C(CC(=O)O)c2cc(F)ccc2/C1=C\c1ccc([S+](C)[O-])cc1 (stereo unspecified) [Sulindac] | -0.221
49 | CC(=O)N1CCN(CCOc2ccc(C3CCN(C4=Nn5c(nnc5C(F)(F)F)CC4)CC3)cc2)CC1 | 1.25
50 | C=CC(=O)N1CCC[C@@H](n2nc(-c3ccc(Oc4ccccc4)cc3)c3c(N)ncnc32)C1 | -0.98
51 | CCC[C@H](NC(=O)[C@@H]1[C@H]2CCC[C@H]2CN1C(=O)[C@@H](NC(=O)[C@@H](NC(=O)c1cnccn1)C1CCCCC1)C(C)(C)C)C(=O)C(=O)NC1CC1 [Telaprevir (VX-950)] | -2.76
52 | Cc1noc(NS(=O)(=O)c2ccc(N)cc2)c1C [Sulfisoxazole] | 0.0329

Row | Structure (SMILES) | miR-132-3p level in NGN2-iNs
53 | CCc1cccc2c3c([nH]c12)C(CC)(CC(=O)O)OCC3 (stereo unspecified) [Etodolac] | -0.294
54 | OCC(O)C(O)CO (stereo unspecified) [Erythritol] | -0.542
55 | C[C@@H]1CN(CC(=O)Nc2ccc3c(c2)Cc2cccc(-c4cc(=O)cc(N5CCOCC5)o4)c2S3)C[C@H](C)O1 | -1.04
56 | OCCOCCN1CCN(C(c2ccccc2)c2ccc(Cl)cc2)CC1 (stereo unspecified) [Hydroxyzine 2HCl] | 0.56
57 | O=C(NS(=O)(=O)c1ccc(Br)s1)c1ccc(Cl)cc1Cl [Tasisulam] | 0.309
58 | [I-].[K+] [Potassium Iodide] | 0.73
59 | Cc1ccccc1N1C(=O)c2cc(S(N)(=O)=O)c(Cl)cc2NC1C (stereo unspecified) [Metolazone] | -0.0376
60 | O=C(Nc1ccc(-c2ccnc(Nc3ccc(N4CCOCC4)cc3)n2)cc1)C1CCCN1 (stereo unspecified) | -0.588
61 | COc1ccc2[nH]c([S+]([O-])Cc3ncc(C)c(OC)c3C)nc2c1 (stereo unspecified) [Omeprazole] | 0.783
62 | NC(=S)N/N=C/c1ncccc1N [Triapine] | -0.807
63 | Nc1cccc2c1CN(C1CCC(=O)NC1=O)C2=O (stereo unspecified) [Lenalidomide (CC-5013)] | 0.231
64 | C[C@]12CC[C@@H]3c4ccc(O)cc4CC[C@H]3[C@@H]1CCC2=O [Estrone] | 0.0752
65 | Nc1ncnc2c1c(-c1cccc(OCc3ccccc3)c1)cn2C1CC(CN2CCC2)C1 (stereo unspecified) | 0.027
66 | COc1cc(C(=O)NC2CCCNC2)cc(OC)c1OC (stereo unspecified) [Troxipide] | 1.23
67 | CCCCCCCCc1ccc(CCC(N)(CO)CO)cc1 [Fingolimod (FTY720) HCl] | 0.87
68 | O=NN(CCCl)C(=O)NC1CCCCC1 [Lomustine] | 0.148
69 | COc1cc(CCC(C)=O)ccc1O [Vanillylacetone] | 0.0303
70 | COc1cnc(NS(=O)(=O)c2ccc(N)cc2)nc1 [Sulfameter] | 1.08
71 | CC(C)c1cc(C(=O)N2Cc3ccc(CN4CCN(C)CC4)cc3C2)c(O)cc1O | 0.188
72 | COc1ccc(-c2cc(=O)c3c(O)cc(O[C@@H]4O[C@H](CO[C@@H]5O[C@@H](C)[C@H](O)[C@@H](O)[C@H]5O)[C@@H](O)[C@H](O)[C@H]4O)cc3o2)cc1O [Diosmin] | -0.712
73 | COc1cc(Nc2ncc(F)c(Nc3ccc4c(n3)N(COP(=O)(O)O)C(=O)C(C)(C)O4)n2)cc(OC)c1OC [Fostamatinib (R788)] | -0.925
74 | CCCCCCCN(CC)CCCC(O)c1ccc(NS(C)(=O)=O)cc1 (stereo unspecified) [Ibutilide Fumarate] | -0.319
75 | CC1(C)S[C@@H]2[C@H](NC(=O)[C@H](NC(=O)N3CCN(S(C)(=O)=O)C3=O)c3ccccc3)C(=O)N2[C@H]1C(=O)O [Mezlocillin Sodium] | -0.438
76 | Cn1cc(-c2ccc3nnc(C(F)(F)c4ccc5ncccc5c4)n3n2)cn1 | 0.797
